We go through seven molecules from publication PMC10492807.

These are yes or no findings as the source states them, for the method shown. In cells and extracts the contact can be indirect. For some of these results: Binding can be weak; no strength is given. For some of these results: Tags and fused reporters may be left off the sequences shown.

In assay [1] the target is T1, PBP2SAL-3xHA (Salmonella enterica serovar Typhimurium) (UniProt E1WGF1).
T1 sequence: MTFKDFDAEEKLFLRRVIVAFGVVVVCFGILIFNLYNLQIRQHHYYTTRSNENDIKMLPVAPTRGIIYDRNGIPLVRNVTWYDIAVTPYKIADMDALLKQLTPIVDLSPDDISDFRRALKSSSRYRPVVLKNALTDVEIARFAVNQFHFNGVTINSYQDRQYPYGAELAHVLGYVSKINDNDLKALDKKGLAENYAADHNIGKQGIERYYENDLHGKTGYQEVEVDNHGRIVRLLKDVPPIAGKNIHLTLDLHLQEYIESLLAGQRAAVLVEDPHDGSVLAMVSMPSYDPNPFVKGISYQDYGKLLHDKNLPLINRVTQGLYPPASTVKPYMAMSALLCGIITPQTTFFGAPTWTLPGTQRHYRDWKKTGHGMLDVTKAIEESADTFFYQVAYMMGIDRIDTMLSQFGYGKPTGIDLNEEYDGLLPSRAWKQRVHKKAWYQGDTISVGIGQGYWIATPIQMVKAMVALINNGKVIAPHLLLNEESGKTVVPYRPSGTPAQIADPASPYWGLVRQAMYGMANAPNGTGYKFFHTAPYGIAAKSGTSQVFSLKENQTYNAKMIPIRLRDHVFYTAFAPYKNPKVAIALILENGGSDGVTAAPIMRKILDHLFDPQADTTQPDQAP
Briefly: co-IP; in vivo cross-linking with DSP of wild-type background strains (PBP2SAL-3xHA plus a 3xFLAG-tagged D,D-CPase or FepA) grown in LB pH 4.6; NP-40 membrane extracts immunoprecipitated with anti-PBP2, anti-HA or anti-FLAG; gels with β-mercaptoethanol; Western blot.

Assay [2] addresses T2, PBP2SAL-3xFLAG (Salmonella enterica serovar Typhimurium) (UniProt E1WGF1).
T2 sequence: T1 sequence
In words: co-IP; in vivo cross-linking with DSS (2.5 mM, PBS pH 8.0, 30 min RT) of bacteria grown in LB pH 4.6; NP-40 membrane extracts of WT, ΔmrdA and ΔPBP2SAL strains immunoprecipitated with anti-FLAG or anti-PBP2, protein G dynabeads; Western blot. (A western blot detects proteins with antibodies after separation by electrophoresis.)

The target of assay [3] is DacD-3xFLAG (Salmonella enterica serovar Typhimurium). In words: co-IP; in vivo cross-linking with DSP of wild-type background strains (PBP2SAL-3xHA plus a 3xFLAG-tagged D,D-CPase or FepA) grown in LB pH 4.6; NP-40 membrane extracts immunoprecipitated with anti-PBP2, anti-HA or anti-FLAG; gels with β-mercaptoethanol; Western blot.
The target of assay [4] is DacA-3xFLAG (Salmonella enterica serovar Typhimurium). The description is as above.
In assay [5] the target is DacB-3xFLAG (Salmonella enterica serovar Typhimurium). Described as above.
Assay [6] addresses DacC-3xFLAG (Salmonella enterica serovar Typhimurium). Described as above.

Take “DacA-3xFLAG (Salmonella enterica serovar Typhimurium) (enzyme)”: the binding entry in assay [1] was “binds”.

As to “DacB-3xFLAG (Salmonella enterica serovar Typhimurium) (enzyme)”, in assay [1], the binding entry was “binds”.

Take “DacC-3xFLAG (Salmonella enterica serovar Typhimurium) (enzyme)”: the binding entry in assay [1] is “binds”.

Regarding “DacD-3xFLAG (Salmonella enterica serovar Typhimurium) (enzyme)”, the binding result in assay [1] is reported as “binds”.

For the molecule “FepA-3xFLAG (Salmonella enterica serovar Typhimurium)”, the binding result in assay [1] was “no binding”.

Regarding PBP2 (MrdA) (enzyme), the binding entry in assay [2] is listed as “no binding”.

B1: PBP2SAL-3xHA (enzyme, UniProt E1WGF1 1-623)
chain: T1 sequence
Take B1: the binding result in assay [3], in assay [4], in assay [5] and in assay [6] was “binds” throughout.
